PubChem BioAssay AID1347076 (National Center for Advancing Translational Sciences (NCATS), 2019)
In all, about 400,000 compounds went through this assay and about 13,000 (3.2%) were called active. Inconclusive means that the source gave no clear call. Such entries were picked first, then a sample of the others. The call rests on the fitted dose curve; in most records, active means well fitted cell-killing curve with a large enough effect; inconclusive means small, poorly fitted or top-dose-only effect, or effect the other way; inactive means flat fitted curve, though single readings scatter. Potencies beside an inconclusive call are fits to weak or partial responses and may not hold up.
On the % scale 0 is the no-effect control and ±100 the full control effect; potency means the concentration at half of the fitted maximal effect.

Assay: qHTS assay for MDR1-selective chemotherapeutics: Primary screen using the drug-selected MDR subline cells KB-V1; further: nearly all actives have a fitted effect of over 60% in size
Settings: KB-V1 MDR cells viability, CellTiter-Glo, 72 h; activity change, negative = cytotoxicity: at 46.1 µM (top of the series)
Summary of the method: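 Luminescent ATP read-out (CellTiter-Glo, 10 min) measures survival of drug-selected KB-V1 MDR cells after 72 h, 37 degrees C compound exposure. Medium: phenol-red-free DMEM, 10% FBS. Values from fitted concentration-response curves.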
With `COc1ccc(Cl)cc1NC(=O)CN(C)C(=O)c1cn2ccccc2n1` the Potency was inconclusive: 16.4 µM [cytotoxic, single point]. In the case of `CCOC(=O)C1CCCN(S(=O)(=O)c2cc(Br)cc3c2N(C(C)=O)CC3)C1` (stereo not given), the Potency is reported as inconclusive: 29.1 µM [rising, single point]. In the case of `CCOc1ccc(NC(=O)CCN2CCN(c3ccccc3F)CC2)cc1`, the Potency is reported as inconclusive: 20.6 µM [cytotoxic, partial curve, poor fit]. With `Cc1cccc(C(c2sc3nc(-c4ccco4)nn3c2O)N2CCN(c3ccccc3F)CC2)c1` (stereo not given) the Potency was inconclusive: 29.1 µM [rising, single point]. In the case of `Cc1ccc(C)c(NC(=O)CNS(=O)(=O)c2ccccc2)c1`, the Potency is reported as inconclusive: 8.2 µM [cytotoxic, partial curve]. For `COc1cccc(-n2nnnc2S(C)(=O)=O)c1`, the Potency was inconclusive: 20.6 µM [cytotoxic, single point]. With `CCNC(=O)NC(=O)C(C)Sc1nc2cc(C(=O)OC)ccc2c(=O)n1-c1ccccc1` (stereo not given) the Potency was inconclusive: 32.6 µM [cytotoxic, single point]. In the case of `O=S(=O)(c1ccc(NC(=S)NCCC(c2ccccc2)c2ccccc2)cc1)N1CCOCC1`, the Potency is reported as inconclusive: 29.1 µM [cytotoxic, single point]. For `CCOC(=O)N1CCN(C(=O)CSCc2ccccc2Cl)CC1`, the Potency was inconclusive: 18.4 µM [cytotoxic, single point]. In the case of `CCN1/C(=C/c2sc(-c3ccccc3C)c[n+]2C)Sc2ccccc21`, the Potency is reported as inconclusive: 16.4 µM [cytotoxic, single point]. In the case of `CCOC(=O)N1CCC(NC(=O)c2cnn(-c3ccc(C)cc3C)c2C2CCN(C(=O)OC(C)(C)C)CC2)CC1`, the “activity change, negative = cytotoxicity” value is reported as inactive: 0%. For `CCOc1ccccc1C=NNC(=O)C1CC1`, the “activity change, negative = cytotoxicity” value was inactive: 11.4%. With `COc1ccc2nc(NC(=O)c3cccc(OCc4c(C)noc4C)c3)sc2c1` the Potency was active: 3.66 µM. With `CCCNC(=O)NC(C(=O)OC)C12CC3CC(CC(C3)C1)C2` (stereo not given) the Potency was inconclusive: 23.1 µM [cytotoxic, single point]. With `COc1cccc(CN2CC(C(=O)NCCc3nccs3)CCC2=O)c1` (stereo not given) the “activity change, negative = cytotoxicity” value was inactive: 18.5%. With `CCc1ccc(NC(=O)c2cc(C(C)C)on2)cc1` the activity change, negative = cytotoxicity was inconclusive: -84.9%. With `COc1ccc(-n2c(-c3ccc(Br)cc3)nc(=S)c3c2CCCC3)cc1` the Potency was inconclusive: 13 µM [cytotoxic, partial curve, poor fit]. For `COc1ccc(/C(C)=N/NC(=O)c2ccc(N(C)C)cc2)cc1`, the Potency was inconclusive: 5.8 µM [cytotoxic, full curve, poor fit]. With `CCOC(=O)c1c(NC(=O)C(NCCN(C)C)c2ccccc2)sc2c1CCCC2` (stereo not given) the “activity change, negative = cytotoxicity” value was inactive: -21.4%. In the case of `Cc1cnc(C(=O)Nc2ccc(OC(F)(F)F)cc2)cn1`, the Potency is reported as inconclusive: 3.26 µM [cytotoxic, full curve]. In the case of `CCCCCC(=O)N1C[C@@H](n2cc(C3CC3)nn2)[C@H](O)C[C@@H]1c1ccc(C)cc1`, the “activity change, negative = cytotoxicity” value is reported as inactive: -8.89%. For `C#CCNC(=O)C1=C[C@@H](c2coc3ccccc3c2=O)C[C@@H](OCCCCO)O1`, the activity change, negative = cytotoxicity was inconclusive: 0%. For `Cc1ccc(S(=O)(=O)Nc2ccc3nc(C)sc3c2)c(C)c1`, the “activity change, negative = cytotoxicity” value was inactive: -2.23%. For `O=C(NN=C1CCCCC1)Nc1ccccc1Cl`, the Potency was inconclusive: 0.146 µM [rising, full curve]. With `Clc1ccccc1CSc1cc2c(nn1)-c1ccccc1CC2` the Potency was inconclusive: 14.6 µM [cytotoxic, partial curve, poor fit]. In the case of `CC(C)(C)c1ccc(Cc2n[nH]c(=S)[nH]c2=O)cc1`, the “activity change, negative = cytotoxicity” value is reported as inactive: 0.347%. With `O=C(Cn1ncc2ccccc21)N1CCN(c2cccc(C(F)(F)F)c2)CC1` the Potency was inconclusive: 32.6 µM [cytotoxic, single point]. With `CC(=O)Nc1cccc(Nc2nc3ccccc3n3c(C)nnc23)c1` the “activity change, negative = cytotoxicity” value was inactive: -23.9%. In the case of `CC(Sc1ccc(Cl)cc1)C(=O)NNC(=O)c1csc(N2CCOCC2)n1` (stereo not given), the Potency is reported as inconclusive: 29.1 µM [cytotoxic, single point]. For `Cc1nc(SCc2nc3ccc(Br)cc3[nH]2)c2oc3ccccc3c2n1`, the “activity change, negative = cytotoxicity” value was inactive: 3.79%. For `CCN(/N=C/c1ccccc1)c1cc(=O)n(C)c(=O)[nH]1`, the Potency was inconclusive: 20.6 µM [cytotoxic, partial curve]. With `CCCCNC(=S)NCC(c1ccccc1)c1c[nH]c2ccccc12` (stereo not given) the Potency was inconclusive: 20.6 µM [cytotoxic, single point]. In the case of `O=[N+]([O-])c1ccc(-n2nnnc2-c2ccccc2)c([N+](=O)[O-])c1`, the Potency is reported as active: 18.4 µM. For `CCc1ccc(-c2nc(CS(=O)CC(=O)NC3CC3)c(C)o2)cc1` (stereo not given), the “activity change, negative = cytotoxicity” value was inactive: -7.66%. For `O=C(Cc1cccs1)NNC(=S)NC(=O)c1ccccc1`, the Potency was inconclusive: 3.26 µM [cytotoxic, full curve]. With `CC(C)CN1C(=O)C(=O)N(CC(=O)c2ccc[nH]2)C1=O` the “activity change, negative = cytotoxicity” value was inactive: 5.4%. In the case of `COc1ccc(C(O)C(O)(C(=O)OC(C)C)c2ccc(C)cc2)cc1` (stereo not given), the Potency is reported as inconclusive: 14.6 µM [cytotoxic, partial curve, poor fit]. In the case of `CCOC(=O)c1c(NC(=O)COC(=O)CCOc2cc(C)ccc2C)sc(C(=O)N(C)C)c1C`, the Potency is reported as inconclusive: 20.6 µM [cytotoxic, single point]. With `Clc1ccc(N2CCN(c3ccnc(Cl)n3)CC2)cc1` the “activity change, negative = cytotoxicity” value was inactive: -22.2%. For `Cc1ccc(COc2ccc(/C=N/O)cc2)cc1`, the “activity change, negative = cytotoxicity” value was inactive: 0%. In the case of `CCOC(=O)C1=C(O)CSC1=Nc1cccc2ccccc12`, the Potency is reported as active: 23.1 µM. With `CCCN(CCC)CCCNC(=O)Cn1ncc2c3ccccc3n(Cc3ccccc3F)c2c1=O` the “activity change, negative = cytotoxicity” value was inactive: 4.31%. In the case of `CN(Cc1ccccc1)C(=O)Nc1c(Cl)cccc1Cl`, the Potency is reported as inconclusive: 25.9 µM [cytotoxic, partial curve, poor fit]. For `Cc1noc(C)c1CSCc1ccc(Cl)cc1`, the “activity change, negative = cytotoxicity” value was inactive: 0.414%. In the case of `O=C1CCC(C(=O)N2CCC(CO)(Cc3ccc(Cl)cc3)CC2)=NN1`, the Potency is reported as inconclusive: 29.1 µM [rising, single point]. With `O=C(NCc1ccccc1)N1CCN(c2ccccc2F)CC1` the Potency was inconclusive: 16.4 µM [cytotoxic, single point]. With `NNC(=O)c1cc2sccc2s1` the Potency was inconclusive: 29.1 µM [cytotoxic, partial curve, poor fit]. In the case of `CS(=O)(=O)Nc1ccc(N2CCCCC2)c(Cl)c1`, the Potency is reported as inconclusive: 20.6 µM [cytotoxic, single point]. In the case of `CCOc1ccc(OCCn2c(SCC(=O)O)nc3ccccc32)cc1`, the Potency is reported as inconclusive: 29.1 µM [cytotoxic, single point]. For `O=C(CC(CC(=O)c1ccccc1)c1ccco1)c1ccccc1`, the Potency was inconclusive: 29.1 µM [cytotoxic, single point]. For `CC(C)CN(CCNC(=O)c1cn(C)c2ccc(S(=O)(=O)N3CCCCCC3)cc2c1=O)CC(C)C`, the “activity change, negative = cytotoxicity” value was inactive: 1.48%. For `C=CCN1C(C(=O)c2ccccc2)=C(OC(=O)COc2ccccc2)c2ccccc2S1(=O)=O`, the Potency was active: 11.6 µM. For `CSCCC(=O)Nc1nc(-c2ccccn2)cs1`, the Potency was inconclusive: 7.31 µM [cytotoxic, partial curve, poor fit]. With `COc1cc(OC)cc(C(=O)NC2CC3CCC(C2)N3C)c1` (stereo not given) the Potency was inconclusive: 23.1 µM [rising, single point]. For `CN(c1ccccc1)S(=O)(=O)c1cccc(C(=O)NNC(=O)c2ccccc2)c1`, the Potency was active: 14.6 µM. For `CCOC(=O)c1sc(NC(=O)Nc2ccccc2Cl)cc1C`, the Potency was active: 20.6 µM. For `CC1CCN(c2ccccc2NC(=S)NC(=O)c2ccco2)CC1`, the Potency was active: 18.4 µM. With `Cc1nc(N2CCOCC2)c2c(C)c(C(=O)Nc3ccc(F)cc3Cl)sc2n1` the “activity change, negative = cytotoxicity” value was inactive: -14.2%. For `Cc1cccc2cc(C(c3nnnn3CC3CCCO3)N3CCCc4ccccc43)c(=O)[nH]c12` (stereo not given), the Potency was active: 18.4 µM. With `CN(C)c1oc(-c2ccc(COc3ccccc3)o2)nc1C#N` the “activity change, negative = cytotoxicity” value was inactive: -3.64%. With `CCN(CC)S(=O)(=O)c1cc(C(=O)Nc2cc(Cl)ccc2N2CCN(C)CC2)ccc1Cl` the “activity change, negative = cytotoxicity” value was inactive: 12.6%. In the case of `CN(C)S(=O)(=O)c1ccc(-c2cn3ccccc3n2)cc1`, the Potency is reported as active: 16.4 µM. For `CCCN(CC(=O)Nc1ccccc1C)C(=O)Cc1coc2cc(C)ccc12`, the Potency was inconclusive: 11.6 µM [cytotoxic, partial curve]. For `Cc1ccc(NC(=O)C(Cc2ccccc2)NS(=O)(=O)c2ccc3c(c2)CCC(=O)N3)cc1` (stereo not given), the Potency was inconclusive: 7.31 µM [rising, full curve, poor fit]. With `Cc1nc2ccc(Nc3nc(Nc4c(C)cc(C=CC#N)cc4C)nc4nc[nH]c34)cc2s1` the Potency was inconclusive: 29.1 µM [cytotoxic, single point]. With `Cc1ccc(NC(=O)C(=O)NCC(c2ccc3c(c2)OCO3)N2CCN(C)CC2)c(C)c1` (stereo not given) the “activity change, negative = cytotoxicity” value was inactive: 9.18%. With `Clc1ccc2c(N/N=C/c3ccccc3Br)ccnc2c1` the Potency was inconclusive: 4.11 µM [cytotoxic, full curve]. For `Nc1ncnc(Sc2ccccc2)c1[N+](=O)[O-]`, the “activity change, negative = cytotoxicity” value was inactive: 0%. In the case of `CCn1cc(C(=O)NCC2CCCO2)c(=O)c2cc(S(=O)(=O)N3CCCCCC3)ccc21` (stereo not given), the Potency is reported as inconclusive: 18.4 µM [cytotoxic, partial curve, poor fit]. For `CC1=C(C(=O)Nc2ccccc2)C2(CCCCC2)C(C(N)=O)C(=S)N1` (stereo not given), the Potency was inconclusive: 23.1 µM [cytotoxic, partial curve, poor fit]. In the case of `O=C1CCC/C1=C/Nc1cccc(F)c1`, the “activity change, negative = cytotoxicity” value is reported as inactive: 0.516%. For `CC1CCN(C(=O)COC(=O)/C=C/c2ccco2)CC1`, the “activity change, negative = cytotoxicity” value was inactive: 9.69%. In the case of `S=c1[nH]nc(-c2ccccn2)n1/N=C/c1cccc2ccccc12`, the “activity change, negative = cytotoxicity” value is reported as inactive: 14.5%. For `C/C(=N\NC(=O)c1nnn(-c2nonc2N)c1-c1cccs1)c1cccnc1`, the activity change, negative = cytotoxicity was inconclusive: -8.64%. In the case of `CCOC(=O)C1CCCCN1C(=O)CCc1nnc(-c2ccc3c(c2)OCO3)o1` (stereo not given), the Potency is reported as inconclusive: 7.31 µM [cytotoxic, partial curve].
